Some of these results come from one statement about several compounds together.
Experiment: Solubility of Cp40-based analogs in PBS

mPEG(3k)-Cp40: N-terminus of Cp40 coupled to polydisperse PEG chain of 3 kDa via amide coupling
improvement in solubility compared to the parental peptide Cp40: > 200 fold

Reference: US10800812B2, “Compstatin analogs with increased solubility and improved pharmacokinetic properties” (The Trustees of the University of Pennsylvania, priority 2018, dated 2020)
